This note sets out measurements from paper PMC3125211.

Sequences of proteins named here, by UniProt entry; tags and fusion partners are left off. Residues count along the entry.
UniProt P09055, residues 21-798: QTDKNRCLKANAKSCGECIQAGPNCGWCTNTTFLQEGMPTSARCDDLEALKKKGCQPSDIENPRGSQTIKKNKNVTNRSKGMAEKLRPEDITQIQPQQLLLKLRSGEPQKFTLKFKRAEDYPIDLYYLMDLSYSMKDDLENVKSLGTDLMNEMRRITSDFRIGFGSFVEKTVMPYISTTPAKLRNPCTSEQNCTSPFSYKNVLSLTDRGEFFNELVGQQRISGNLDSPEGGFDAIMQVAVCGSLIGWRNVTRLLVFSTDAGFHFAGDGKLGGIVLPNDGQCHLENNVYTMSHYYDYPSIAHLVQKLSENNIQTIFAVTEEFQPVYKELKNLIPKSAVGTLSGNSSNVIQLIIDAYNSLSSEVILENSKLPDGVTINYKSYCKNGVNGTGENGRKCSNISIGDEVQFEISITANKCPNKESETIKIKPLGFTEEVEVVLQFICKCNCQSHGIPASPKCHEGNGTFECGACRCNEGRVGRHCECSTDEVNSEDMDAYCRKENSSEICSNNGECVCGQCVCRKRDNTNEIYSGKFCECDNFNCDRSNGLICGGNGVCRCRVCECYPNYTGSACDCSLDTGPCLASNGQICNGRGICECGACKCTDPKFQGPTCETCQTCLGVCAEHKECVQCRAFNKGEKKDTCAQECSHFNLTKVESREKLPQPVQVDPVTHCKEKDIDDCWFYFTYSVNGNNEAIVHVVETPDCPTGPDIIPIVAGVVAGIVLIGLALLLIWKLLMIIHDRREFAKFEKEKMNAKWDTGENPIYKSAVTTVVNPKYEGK
UniProt P10852: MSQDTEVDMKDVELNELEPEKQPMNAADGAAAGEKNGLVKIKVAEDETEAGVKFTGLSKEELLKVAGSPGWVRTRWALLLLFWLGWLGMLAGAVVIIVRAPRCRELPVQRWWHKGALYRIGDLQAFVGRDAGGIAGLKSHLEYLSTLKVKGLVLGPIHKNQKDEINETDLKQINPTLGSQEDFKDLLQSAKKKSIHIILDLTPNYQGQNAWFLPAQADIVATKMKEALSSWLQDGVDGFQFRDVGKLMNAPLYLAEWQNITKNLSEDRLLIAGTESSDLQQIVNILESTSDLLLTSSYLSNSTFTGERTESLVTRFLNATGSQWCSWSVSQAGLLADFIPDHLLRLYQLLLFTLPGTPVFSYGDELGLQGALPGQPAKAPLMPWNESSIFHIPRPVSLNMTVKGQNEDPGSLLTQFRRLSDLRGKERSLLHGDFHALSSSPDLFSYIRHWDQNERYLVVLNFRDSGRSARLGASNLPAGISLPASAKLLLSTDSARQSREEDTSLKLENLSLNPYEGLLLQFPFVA

These are yes or no findings as the source states them, for the method shown. In cells and extracts the contact can be indirect. Some entries that bind do so weakly or less than the wild type.

Experiment [1] addresses endogenous integrin β1 of PST080 ES cells (mouse (endogenous in PST080 ES cells)) (UniProt P09055). Briefly: co-IP; 200 μg PST080 ES cell lysate in IP buffer; 4 μg anti-integrin β1 mAb 9EG7 or normal rat IgG with protein-G Sepharose, 4°C, 4 h; blots with anti-CD98hc N-20, anti-β galactosidase pAb or anti-integrin β1 pAb.
Experiment [2] has as its target FLAG-tagged integrin β1 (mouse) (UniProt P09055). Briefly: co-IP; lysate of 20 frog oocytes co-expressing FLAG-integrin β1 and CD98hc or ΔCD98hc-β geo; IP buffer (20 mM HEPES pH 7.5, 50 mM NaCl, 1% NP-40); ANTI-FLAG M2 affinity gel, 4 h; blots with anti-FLAG M2, anti-CD98hc N-20 or anti-β galactosidase pAb.

With “endogenous CD98 heavy chain of PST080 ES cells (from UniProt P10852 1-526)”, in experiment [1], the binding result is recorded as “binds”. Consider “wild type CD98 heavy chain (CD98hc, Slc3a2) expressed in frog oocytes (from UniProt P10852 1-526)”, for which, in experiment [2], the binding entry was “binds”.
